These are yes or no findings as the source states them, for the method shown. Some entries that bind do so weakly or less than the wild type. Where a sequence is shown, tags or fusion partners need not be part of it.
Molecular target: T1, GST-Omi PDZ fusion protein (human, UniProt O43464 359-458)
T1 construct: also called GST-hOmiPDZ; hOmi PDZ domain; not shown: glutathione S-transferase (GST) encoded by plasmid pGEX6P-3
T1 sequence: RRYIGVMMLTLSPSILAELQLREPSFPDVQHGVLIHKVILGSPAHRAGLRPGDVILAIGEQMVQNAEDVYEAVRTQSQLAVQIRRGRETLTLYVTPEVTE
Experiment: phage ELISA on GST-Omi PDZ after three rounds of selection
Method: Selection for Omi PDZ peptides—Previously described procedures were used to isolate peptides that bound to a GST-Omi PDZ fusion, using libraries of random decapeptides fused to either the C terminus(18) or octapeptide fused to the N terminus(19) of the M13 gene-8 major coat protein, designated as libC or libN, respectively. After three rounds of selection, individual clones were grown in a 96-well format in 500 μL of 2YT broth supplemented with carbenicillin, kanamycin and KO7, and the culture supernatants were used directly in phage ELISAs(19) to detect peptides that bound specifically to Omi PDZ. Peptide sequences derived from positive clones were aligned and tabulated. A total of 95 positive colonies from libC and 89 from libN were analyzed. (see Table II). […] The sequences were selected after three rounds of sorting with IPTG induction. Hydrophobic residues (A, F, I, L, M, V, W, Y) are italicized and bolded, n is the number of siblings.

B1: libC phage-displayed peptide SEQ ID NO:37 (peptide, not shown: large carriers)
chain: YGGTFILPHL
binding: binds
